Experimental data reported in US6747136.

Biological target: HCV E2 antigen (HCV genotype 1b) (hepatitis C virus genotype 1b)
Experiment: inhibition ELISA with E2 of genotype 1b

B1: Fab molecule clone A8 (Fab, V domains shown)
VH: EVQLLESGPGLVKPSGTLSLTCTVSGGSIRSSHWWSWVRQPPGKGLEWIGEVFFSGSTIYNPSLNDRVFMSVDKSKDQVSLRLSSVTAADTAVYYCARSPIKMNQGRMMLDAFDIWGQGTLVIVSS
VL: AELTQSPSSLSAFVGDRVTITCRASQSISRNLNWYQQKPGTAPKVLIYAASSLQSGVPSRFSGSGSGTDFTLTITSLQPEDFATYYCQQSYTTPRTFGQGTKVEVK
  binding: binds

B2: Fab molecule clone A12 (Fab, V domains shown)
VH: EVQLLESGSEVKKPGSSVKVSCRASGGSFRSYNFNWVRQAPGQGLEWMGGIIPMFGTANYAQKFQGRVTITADESTATGYMELSSLRSEDTAVYYCAMPYPKHCSRGSCWGWFDPWGQGTLVTVSS
VL: AELTQSPGTLSLSPGERATLSCRASQSLSSKYLAWYQQKPGQAPRLFIYDASSRATGIPDRFSGSGSGTDFTLSISRLEPEDFAVYYCQQYGTPRTFGQGTKVEIK
  binding: binds

These are yes or no findings as the source states them, for the method shown. A result given as binding can be weak or reduced; the word gives no strength.
